The supplement of paper PMC10849652
The list shows a part of the results.

The chains behind the UniProt entries cited, without tags or fusion partners. Where a name states a change or a piece, a line headed by the entry shows the natural chain unless it says otherwise.
UniProt O76080: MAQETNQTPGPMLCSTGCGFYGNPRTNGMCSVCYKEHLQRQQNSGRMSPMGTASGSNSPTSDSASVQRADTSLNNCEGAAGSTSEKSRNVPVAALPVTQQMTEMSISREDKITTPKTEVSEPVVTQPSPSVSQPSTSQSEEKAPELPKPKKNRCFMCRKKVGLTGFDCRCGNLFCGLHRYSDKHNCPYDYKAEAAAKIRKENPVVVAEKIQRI
UniProt O15498: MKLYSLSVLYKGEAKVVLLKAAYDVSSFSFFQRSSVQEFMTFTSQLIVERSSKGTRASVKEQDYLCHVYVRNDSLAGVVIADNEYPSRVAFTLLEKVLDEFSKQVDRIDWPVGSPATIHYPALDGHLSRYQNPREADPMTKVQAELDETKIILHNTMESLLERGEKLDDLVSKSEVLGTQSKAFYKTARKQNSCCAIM
UniProt O95619, whole entry, looked up: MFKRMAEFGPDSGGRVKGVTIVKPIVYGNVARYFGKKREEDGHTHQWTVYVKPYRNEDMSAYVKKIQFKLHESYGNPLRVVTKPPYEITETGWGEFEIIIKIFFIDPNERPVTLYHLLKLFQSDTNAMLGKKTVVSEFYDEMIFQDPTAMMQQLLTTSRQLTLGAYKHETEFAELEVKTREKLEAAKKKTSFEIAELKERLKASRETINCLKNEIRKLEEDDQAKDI
UniProt P52747: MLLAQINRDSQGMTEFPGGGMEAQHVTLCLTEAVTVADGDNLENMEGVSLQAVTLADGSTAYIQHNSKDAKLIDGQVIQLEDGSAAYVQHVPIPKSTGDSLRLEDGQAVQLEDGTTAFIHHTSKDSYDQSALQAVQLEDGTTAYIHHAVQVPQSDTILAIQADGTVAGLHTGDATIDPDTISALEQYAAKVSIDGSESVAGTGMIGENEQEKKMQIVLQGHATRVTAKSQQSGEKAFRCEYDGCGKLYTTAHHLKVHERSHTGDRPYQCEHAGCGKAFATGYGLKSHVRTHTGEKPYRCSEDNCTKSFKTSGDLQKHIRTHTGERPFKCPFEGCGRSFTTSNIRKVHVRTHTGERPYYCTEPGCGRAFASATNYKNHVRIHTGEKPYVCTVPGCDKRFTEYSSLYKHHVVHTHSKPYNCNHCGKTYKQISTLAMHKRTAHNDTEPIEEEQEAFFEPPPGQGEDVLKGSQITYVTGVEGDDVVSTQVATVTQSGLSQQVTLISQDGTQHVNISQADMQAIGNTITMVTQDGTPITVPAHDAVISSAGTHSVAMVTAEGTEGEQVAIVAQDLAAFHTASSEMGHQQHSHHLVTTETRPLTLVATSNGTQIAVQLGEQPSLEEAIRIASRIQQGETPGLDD
UniProt Q13426: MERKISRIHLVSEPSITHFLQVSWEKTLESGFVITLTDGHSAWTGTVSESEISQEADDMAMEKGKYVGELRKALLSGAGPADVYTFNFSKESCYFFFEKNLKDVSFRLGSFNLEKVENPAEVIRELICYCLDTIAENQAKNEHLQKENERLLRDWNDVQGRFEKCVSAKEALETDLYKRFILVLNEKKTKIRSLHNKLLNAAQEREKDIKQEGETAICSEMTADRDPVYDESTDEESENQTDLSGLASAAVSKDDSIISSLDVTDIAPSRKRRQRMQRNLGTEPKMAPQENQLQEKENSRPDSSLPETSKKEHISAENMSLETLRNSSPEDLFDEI
UniProt P12956: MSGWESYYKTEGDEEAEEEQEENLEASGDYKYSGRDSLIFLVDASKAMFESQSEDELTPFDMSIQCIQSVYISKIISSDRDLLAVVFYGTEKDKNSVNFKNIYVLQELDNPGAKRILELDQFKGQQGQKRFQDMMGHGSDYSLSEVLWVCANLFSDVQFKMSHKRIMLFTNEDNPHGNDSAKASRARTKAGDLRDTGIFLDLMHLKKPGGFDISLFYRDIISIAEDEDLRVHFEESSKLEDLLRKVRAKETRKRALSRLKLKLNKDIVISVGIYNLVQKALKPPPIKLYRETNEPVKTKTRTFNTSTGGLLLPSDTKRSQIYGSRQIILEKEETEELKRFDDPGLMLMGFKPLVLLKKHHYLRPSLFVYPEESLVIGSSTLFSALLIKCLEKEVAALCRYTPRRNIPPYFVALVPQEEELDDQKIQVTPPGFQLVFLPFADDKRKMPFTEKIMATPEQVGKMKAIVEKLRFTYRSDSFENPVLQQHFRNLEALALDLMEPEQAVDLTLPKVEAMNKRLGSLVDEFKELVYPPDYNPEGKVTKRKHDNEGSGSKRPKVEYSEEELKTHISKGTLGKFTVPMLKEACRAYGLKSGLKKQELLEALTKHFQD
UniProt P67809, whole entry, looked up: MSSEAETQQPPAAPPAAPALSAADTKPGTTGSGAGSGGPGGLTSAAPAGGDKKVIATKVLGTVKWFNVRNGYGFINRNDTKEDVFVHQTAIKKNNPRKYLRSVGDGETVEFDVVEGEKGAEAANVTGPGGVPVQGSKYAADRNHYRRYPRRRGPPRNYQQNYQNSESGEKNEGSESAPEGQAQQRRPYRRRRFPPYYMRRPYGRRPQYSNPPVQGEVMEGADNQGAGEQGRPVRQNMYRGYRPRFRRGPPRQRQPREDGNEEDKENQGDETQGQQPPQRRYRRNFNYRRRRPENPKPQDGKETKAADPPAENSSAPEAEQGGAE
UniProt Q96JP5: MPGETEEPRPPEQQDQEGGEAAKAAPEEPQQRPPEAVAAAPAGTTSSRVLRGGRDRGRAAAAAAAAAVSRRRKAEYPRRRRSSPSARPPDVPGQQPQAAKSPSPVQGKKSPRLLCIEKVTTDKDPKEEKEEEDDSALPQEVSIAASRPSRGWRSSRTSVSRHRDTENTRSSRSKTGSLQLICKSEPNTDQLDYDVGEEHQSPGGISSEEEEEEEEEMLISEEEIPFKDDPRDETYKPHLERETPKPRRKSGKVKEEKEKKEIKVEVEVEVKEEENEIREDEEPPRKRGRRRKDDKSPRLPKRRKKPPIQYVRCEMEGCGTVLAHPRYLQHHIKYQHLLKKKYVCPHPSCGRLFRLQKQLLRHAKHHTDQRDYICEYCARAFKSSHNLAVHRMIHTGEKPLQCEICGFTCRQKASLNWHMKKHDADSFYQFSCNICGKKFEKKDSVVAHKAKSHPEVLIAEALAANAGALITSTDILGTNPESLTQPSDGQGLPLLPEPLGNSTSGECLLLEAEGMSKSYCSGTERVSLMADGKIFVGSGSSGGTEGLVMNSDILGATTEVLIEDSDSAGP
UniProt Q9Y5A9: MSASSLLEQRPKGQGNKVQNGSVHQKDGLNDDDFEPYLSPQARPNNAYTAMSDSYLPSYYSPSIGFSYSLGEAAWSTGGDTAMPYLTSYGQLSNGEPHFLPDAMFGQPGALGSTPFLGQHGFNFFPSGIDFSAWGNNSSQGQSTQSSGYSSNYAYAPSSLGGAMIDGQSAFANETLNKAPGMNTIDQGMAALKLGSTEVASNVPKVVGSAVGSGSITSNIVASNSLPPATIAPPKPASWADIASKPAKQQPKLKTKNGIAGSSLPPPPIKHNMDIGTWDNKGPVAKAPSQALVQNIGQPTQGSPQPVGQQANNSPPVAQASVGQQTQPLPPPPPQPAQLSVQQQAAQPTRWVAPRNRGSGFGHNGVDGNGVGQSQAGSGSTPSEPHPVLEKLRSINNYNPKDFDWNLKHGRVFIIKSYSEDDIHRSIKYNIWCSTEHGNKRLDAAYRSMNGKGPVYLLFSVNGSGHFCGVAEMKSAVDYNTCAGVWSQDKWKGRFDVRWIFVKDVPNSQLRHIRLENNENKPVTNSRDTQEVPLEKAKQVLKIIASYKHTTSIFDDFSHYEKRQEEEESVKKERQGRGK
UniProt Q9NYG2: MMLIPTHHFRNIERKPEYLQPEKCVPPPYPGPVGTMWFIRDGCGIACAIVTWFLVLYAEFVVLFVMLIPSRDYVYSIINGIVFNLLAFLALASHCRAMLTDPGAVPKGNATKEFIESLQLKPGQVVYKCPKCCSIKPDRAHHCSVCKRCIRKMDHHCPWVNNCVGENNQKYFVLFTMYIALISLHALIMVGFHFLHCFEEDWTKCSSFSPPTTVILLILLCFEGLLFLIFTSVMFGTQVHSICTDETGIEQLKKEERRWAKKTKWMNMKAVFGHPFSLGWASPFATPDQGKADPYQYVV
UniProt O43542: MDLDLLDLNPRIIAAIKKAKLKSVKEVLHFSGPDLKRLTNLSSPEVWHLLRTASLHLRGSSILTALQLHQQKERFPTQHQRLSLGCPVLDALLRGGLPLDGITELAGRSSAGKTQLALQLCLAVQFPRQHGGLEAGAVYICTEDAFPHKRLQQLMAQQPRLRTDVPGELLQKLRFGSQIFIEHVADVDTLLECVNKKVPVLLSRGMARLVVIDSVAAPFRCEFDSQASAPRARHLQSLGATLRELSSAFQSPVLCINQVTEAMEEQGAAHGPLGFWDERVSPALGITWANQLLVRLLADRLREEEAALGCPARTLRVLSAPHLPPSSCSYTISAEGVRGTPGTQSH
UniProt Q8WU90: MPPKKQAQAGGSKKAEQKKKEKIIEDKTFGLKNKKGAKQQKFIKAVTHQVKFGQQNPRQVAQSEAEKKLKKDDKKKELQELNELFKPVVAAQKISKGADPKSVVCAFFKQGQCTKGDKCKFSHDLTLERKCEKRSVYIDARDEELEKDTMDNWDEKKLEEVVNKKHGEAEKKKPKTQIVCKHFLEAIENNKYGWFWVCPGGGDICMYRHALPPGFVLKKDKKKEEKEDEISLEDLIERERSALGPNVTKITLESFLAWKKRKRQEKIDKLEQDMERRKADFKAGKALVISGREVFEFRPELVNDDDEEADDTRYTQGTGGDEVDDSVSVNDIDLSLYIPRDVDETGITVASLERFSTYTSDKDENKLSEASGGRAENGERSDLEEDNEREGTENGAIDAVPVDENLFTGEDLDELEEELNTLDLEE
UniProt P62258: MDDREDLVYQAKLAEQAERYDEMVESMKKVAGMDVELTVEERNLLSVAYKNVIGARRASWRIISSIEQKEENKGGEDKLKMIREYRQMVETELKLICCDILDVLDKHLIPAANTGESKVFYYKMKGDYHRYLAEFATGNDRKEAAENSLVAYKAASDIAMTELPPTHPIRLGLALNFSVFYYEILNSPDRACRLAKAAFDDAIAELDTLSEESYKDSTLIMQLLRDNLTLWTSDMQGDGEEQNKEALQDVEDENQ
UniProt Q5BJH7: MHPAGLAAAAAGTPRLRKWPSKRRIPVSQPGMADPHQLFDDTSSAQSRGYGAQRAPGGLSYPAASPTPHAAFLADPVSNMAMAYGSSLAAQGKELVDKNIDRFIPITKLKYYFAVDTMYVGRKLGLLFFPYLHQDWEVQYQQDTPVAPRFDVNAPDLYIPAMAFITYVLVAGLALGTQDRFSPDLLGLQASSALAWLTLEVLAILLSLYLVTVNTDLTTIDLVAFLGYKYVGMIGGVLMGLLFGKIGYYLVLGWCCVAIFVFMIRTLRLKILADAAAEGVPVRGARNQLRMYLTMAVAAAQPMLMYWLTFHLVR
UniProt Q5W0Z9: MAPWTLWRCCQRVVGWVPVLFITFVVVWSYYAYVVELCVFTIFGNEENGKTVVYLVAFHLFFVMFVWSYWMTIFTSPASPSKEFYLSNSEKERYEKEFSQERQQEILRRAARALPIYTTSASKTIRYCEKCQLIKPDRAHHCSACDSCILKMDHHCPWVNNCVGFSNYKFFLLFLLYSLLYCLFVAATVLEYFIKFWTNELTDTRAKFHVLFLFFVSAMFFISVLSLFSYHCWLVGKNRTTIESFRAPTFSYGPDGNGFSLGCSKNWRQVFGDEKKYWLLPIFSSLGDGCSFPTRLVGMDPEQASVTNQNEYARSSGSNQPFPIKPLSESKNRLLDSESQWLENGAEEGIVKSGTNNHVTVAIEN
UniProt P61981: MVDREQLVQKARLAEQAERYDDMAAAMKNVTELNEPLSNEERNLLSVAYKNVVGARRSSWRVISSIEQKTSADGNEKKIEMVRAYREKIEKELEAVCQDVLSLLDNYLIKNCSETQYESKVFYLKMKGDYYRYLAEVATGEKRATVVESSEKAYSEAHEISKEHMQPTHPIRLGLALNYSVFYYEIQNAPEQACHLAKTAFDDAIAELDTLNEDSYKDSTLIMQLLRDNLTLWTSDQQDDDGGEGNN

Tests used:
Experiment in all cases: log2 fold change, soluble protein after heating vs DMSO (PISA); higher = thermal stabilisation; K562 cells, 10 uM, 30 min; active = over 0.2 and 3.5 SD of the protein, either way, in both replicates (recomputed)
[1] = compound: Cc1ccc(NC(=O)c2ccc(CN3CC[C@H](N(C)C)C3)c(C(F)(F)F)c2)cc1Nc1nccc(-c2cncnc2)n1 [bafetinib]
In short: (§1)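 Values are thermal stability changes relative to control samples and are taken from duplicates. They are stated as log2 fold changes. Before quantification by TMTpro 16plex LC-MS/MS with equalised channel sums, K562 cells at 2×10^6 cells/mL were treated with 10 μM compound for 30 min, heated in aliquots for 3 min across 48°C-58°C, pooled, extracted in PBS with 0.5% NP-40 at 4°C, and centrifuged at 21,000xg for 90 min to give the soluble supernatant.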

[2] = compound: Cc1cccc(CC(=O)N2CCc3c2ccc(-c2cn(C)c4ncnc(N)c24)c3F)n1
In short: as §1

[3] = compound: Cc1cn(-c2cc(NC(=O)c3ccc(C)c(Nc4nccc(-c5cccnc5)n4)c3)cc(C(F)(F)F)c2)cn1 [nilotinib]
In short: as §1

[4] = compound: Cc1nc(Nc2n[nH]c3c2CN(C(=O)N[C@H](CN(C)C)c2ccccc2)C3(C)C)c2sccc2n1
In short: as §1

[5] = compound: Cc1nc(Nc2ncc(C(=O)Nc3c(C)cccc3Cl)s2)cc(N2CCN(CCO)CC2)n1 [dasatinib]
In short: as §1

[6] = compound: Cc1ncc(-c2ccnc(Nc3ccc(S(C)(=O)=O)cc3)n2)n1C(C)C
In short: as §1

[7] = compound: Cn1cc(-c2ccc3c(c2)CCN3C(=O)Cc2cccc(C(F)(F)F)c2)c2c(N)ncnc21
In short: as §1

[8] = compound: Cn1cc(-c2ccc3nnc(C(F)(F)c4ccc5ncccc5c4)n3n2)cn1
In short: as §1

[9] = compound: Cn1cncc1[C@@](N)(c1ccc(Cl)cc1)c1ccc2c(c1)c(-c1cccc(Cl)c1)cc(=O)n2C [tipifarnib]
In short: as §1

[10] = compound: FC(F)(F)c1ccc(/C=C/c2nc(COc3ccc(CCCCn4ccnn4)cc3)co2)cc1 [mubritinib]
In short: as §1

[11] = compound: NC(=O)Nc1cc(-c2cccc(F)c2)sc1C(=O)N[C@H]1CCCNC1
In short: as §1

[12] = compound: NC(=O)c1cnc(N[C@@H]2CCCC[C@@H]2N)nc1Nc1cccc(-n2nccn2)c1
In short: as §1

[13] = compound: NC1(c2ccc(-c3nc4ccn5c(=O)[nH]nc5c4cc3-c3ccccc3)cc2)CCC1
In short: as §1

[14] = compound: NCC(=O)Nc1ccc(-n2nc(C(F)(F)F)cc2-c2ccc3c(ccc4ccccc43)c2)cc1
In short: as §1

[15] = compound: Nc1ccccc1NC(=O)c1ccc(CNC(=O)OCc2cccnc2)cc1 [entinostat]
In short: as §1

[16] = compound: O=C(CCCCCCC(=O)Nc1ccccc1)NO [vorinostat]
In short: as §1

[17] = compound: O=C(CCCCCCNC(=O)c1cnc(N(c2ccccc2)c2ccccc2Cl)nc1)NO [citarinostat]
In short: as §1

[18] = compound: O=C(O)c1ccc2c(c1)nc(Nc1cccc(Cl)c1)c1ccncc12 [silmitasertib]
In short: as §1

[19] = compound: O=C1NC(=O)C(c2cnc3ccccn23)=C1c1cn2c3c(cc(F)cc13)CN(C(=O)N1CCCCC1)CC2
In short: as §1

[20] = compound: c1cc(OCCN2CCCCC2)cc(-c2n[nH]c3ccc(-c4nnc[nH]4)cc23)c1
In short: as §1

Measured: log2 fold change

ZFAND5 (UniProt O76080)
inactive: [1] -0.022 | [2] -0.032 | [3] 0.098 | [4] 0.038 | [5] 0.082 | [6] -0.099 | [7] -0.02 | [8] -0.036 | [9] 0.031 | [10] 0.099 | [11] -0.041 | [12] 0.084 | [13] 0.019 | [14] 0.103 | [15] -0.031 | [16] -0.047 | [17] 0 | [18] -0.03 | [19] -0.157 | [20] -0.063

YKT6 (UniProt O15498)
inactive: [1] -0.025 | [2] -0.011 | [3] 0.026 | [4] -0.017 | [5] 0.015 | [6] 0.006 | [7] -0.008 | [8] 0.034 | [9] -0.016 | [10] 0.024 | [11] -0.01 | [12] -0.029 | [13] -0.042 | [14] -0.006 | [15] -0.027 | [16] -0.017 | [17] 0.015 | [18] -0.021 | [19] -0.074 | [20] -0.019

YEATS4 (UniProt O95619)
inactive: [1] -0.041 | [2] 0.031 | [3] 0.054 | [4] -0.023 | [5] 0.066 | [6] -0.052 | [7] 0.067 | [8] -0.039 | [9] 0.067 | [10] 0.012 | [11] -0.026 | [12] 0.049 | [13] 0.03 | [14] 0.065 | [15] -0.009 | [16] -0.036 | [17] -0.052 | [18] -0.013 | [19] -0.118 | [20] -0.047

ZNF143 (UniProt P52747)
inactive: [1] -0.089 | [2] 0.027 | [3] -0.105 | [4] -0.047 | [5] -0.007 | [6] 0.074 | [7] -0.129 | [8] 0.041 | [9] 0.037 | [10] 0.094 | [11] 0.07 | [12] -0.106 | [13] -0.023 | [14] -0.047 | [15] -0.012 | [16] 0.037 | [17] 0.033 | [18] 0.023 | [19] -0.042 | [20] -0.06

XRCC4 (UniProt Q13426)
inactive: [1] -0.039 | [2] -0.014 | [3] -0.014 | [4] 0.024 | [5] 0.009 | [6] -0.026 | [7] 0.011 | [8] 0.013 | [9] 0.016 | [10] 0.039 | [11] -0.041 | [12] -0.062 | [13] -0.039 | [14] -0.022 | [15] -0.055 | [16] -0.068 | [17] 0.045 | [18] 0.022 | [19] -0.013 | [20] -0.036

XRCC6 (UniProt P12956)
inactive: [1] -0.003 | [2] 0.032 | [3] -0.067 | [4] -0.248 | [5] -0.147 | [6] -0.07 | [7] -0.01 | [8] 0.018 | [9] -0.104 | [10] 0.043 | [11] -0.064 | [12] -0.143 | [13] -0.139 | [14] -0.08 | [15] 0.098 | [16] 0.134 | [17] 0.107 | [18] 0.026 | [19] -0.119 | [20] -0.049

YBX1 (UniProt P67809)
inactive: [1] 0.146 | [2] -0.024 | [3] 0.033 | [4] 0.149 | [5] 0.167 | [6] 0.013 | [7] -0.199 | [8] -0.136 | [9] 0.242 | [10] -0.031 | [11] 0.025 | [12] 0.048 | [13] 0.306 | [14] 0.055 | [15] -0.073 | [16] -0.056 | [17] -0.13 | [18] 0.125 | [19] 0.126 | [20] -0.156

ZFP91 (UniProt Q96JP5)
inactive: [1] 0.191 | [2] -0.037 | [3] 0.023 | [4] -0.059 | [5] 0.009 | [6] -0.035 | [7] -0.161 | [8] -0.073 | [9] 0.149 | [10] -0.076 | [11] -0.044 | [12] -0.001 | [13] 0.144 | [14] 0.036 | [15] -0.054 | [16] 0.013 | [17] -0.053 | [18] 0.086 | [19] 0.073 | [20] -0.161

YTHDF2 (UniProt Q9Y5A9)
inactive: [1] -0.035 | [2] -0.034 | [3] -0.022 | [4] -0.038 | [5] -0.016 | [6] -0.019 | [7] -0.003 | [8] -0.085 | [9] 0.048 | [10] -0.044 | [11] -0.057 | [12] -0.006 | [13] -0.003 | [14] 0.078 | [15] 0.002 | [16] 0.022 | [17] -0.015 | [18] 0.034 | [19] -0.007 | [20] -0.05

ZDHHC3 isoform 2 (UniProt Q9NYG2)
inactive: [1] -0.131 | [2] -0.043 | [3] -0.091 | [4] -0.002 | [5] -0.02 | [6] -0.001 | [7] 0.024 | [8] 0 | [9] 0.075 | [10] 0.039 | [11] -0.11 | [12] -0.089 | [13] -0.069 | [14] -0.052 | [15] 0.03 | [16] 0.118 | [17] 0.047 | [18] 0.048 | [19] -0.105 | [20] -0.007

XRCC3 (UniProt O43542)
inactive: [1] -0.115 | [2] -0.04 | [3] -0.071 | [4] 0.035 | [5] -0.068 | [6] -0.008 | [7] -0.023 | [8] -0.088 | [9] 0.098 | [10] 0.079 | [11] -0.022 | [12] -0.015 | [13] -0.001 | [14] 0.122 | [15] 0.199 | [16] 0.033 | [17] 0.014 | [18] -0.021 | [19] -0.063 | [20] -0.004

ZC3H15 (UniProt Q8WU90)
inactive: [1] 0.043 | [2] -0.04 | [3] 0.03 | [4] 0.055 | [5] 0.054 | [6] 0.037 | [7] -0.045 | [8] -0.064 | [9] 0.002 | [10] -0.011 | [11] -0.058 | [12] 0.019 | [13] 0.081 | [14] 0.031 | [15] -0.053 | [16] -0.018 | [17] -0.033 | [18] 0.005 | [19] 0.016 | [20] -0.059

YWHAE (UniProt P62258)
inactive: [1] -0.041 | [2] -0.053 | [3] 0.019 | [4] -0.013 | [5] 0.024 | [6] -0.003 | [7] 0 | [8] 0.031 | [9] 0.024 | [10] 0.038 | [11] 0.031 | [12] 0.009 | [13] 0.024 | [14] 0.018 | [15] -0.008 | [16] -0.03 | [17] 0.028 | [18] -0.025 | [19] -0.017 | [20] 0.001

YIF1B (UniProt Q5BJH7)
inactive: [1] -0.011 | [2] 0.042 | [3] 0.079 | [4] 0.031 | [5] -0.082 | [6] -0.026 | [7] -0.14 | [8] 0.045 | [9] -0.124 | [10] 0.053 | [11] -0.009 | [12] -0.043 | [13] -0.045 | [14] 0.062 | [15] 0.081 | [16] -0.041 | [17] 0.019 | [18] 0.027 | [19] 0.064 | [20] -0.057

ZDHHC20 (UniProt Q5W0Z9)
inactive: [1] 0.104 | [2] 0.021 | [3] 0.016 | [4] -0.02 | [5] -0.163 | [6] 0.022 | [7] -0.036 | [8] 0.048 | [9] -0.014 | [10] 0.03 | [11] -0.219 | [12] -0.001 | [13] -0.027 | [14] 0.093 | [15] 0.045 | [16] -0.021 | [17] -0.028 | [18] 0.08 | [19] 0.079 | [20] 0.053

YWHAG (UniProt P61981)
inactive: [1] -0.053 | [2] -0.008 | [3] 0.044 | [4] -0.012 | [5] 0.022 | [6] -0.001 | [7] -0.032 | [8] 0.03 | [9] 0.035 | [10] 0.038 | [11] 0.029 | [12] 0.086 | [13] 0.033 | [14] 0.16 | [15] 0.001 | [16] 0.014 | [17] 0 | [18] -0.097 | [19] -0.049 | [20] 0.11

Quoted from above (2 entries):
ZDHHC20 (UniProt Q5W0Z9)
inactive: [1] 0.104 | [2] 0.021 | [3] 0.016 | [4] -0.02 | [5] -0.163 | [6] 0.022 | [7] -0.036 | [8] 0.048 | [9] -0.014 | [10] 0.03 | [11] -0.219 | [12] -0.001 | [13] -0.027 | [14] 0.093 | [15] 0.045 | [16] -0.021 | [17] -0.028 | [18] 0.08 | [19] 0.079 | [20] 0.053

YWHAG (UniProt P61981)
inactive: [1] -0.053 | [2] -0.008 | [3] 0.044 | [4] -0.012 | [5] 0.022 | [6] -0.001 | [7] -0.032 | [8] 0.03 | [9] 0.035 | [10] 0.038 | [11] 0.029 | [12] 0.086 | [13] 0.033 | [14] 0.16 | [15] 0.001 | [16] 0.014 | [17] 0 | [18] -0.097 | [19] -0.049 | [20] 0.11
